Assay results published in PubChem BioAssay AID1458 (National Center for Advancing Translational Sciences (NCATS), 2008).
Values joined by “and” are separate entries in the source; they are usually repeats but may differ in a detail not shown here. Equal entries are not always repeated. Out of some 210,000 compounds screened, about 5,900 (2.8%) were called active. Inconclusive results (about 5%) are left out. Calls follow the shape of the dose curve; as a rule, active = well fitted activation curve with a large enough effect; inconclusive = small, poorly fitted or top-dose-only effect; inactive = no such curve, though single readings can be large or run the other way. The entries are a selection whose mix differs from that of the whole data set. The source gives no active or inactive call for entries shown without one.

Assay: qHTS Assay for Enhancers of SMN2 Splice Variant Expression; also: nearly all actives have a fitted effect of over 55% in size; as to activity change, positive = activation: % of control where 0% means no effect
Conditions: HEK293 SMN2-luciferase splicing reporter, luminescence, 30-36 h; activity change, positive = activation: at 46.1 µM (top of the series) unless noted
How it was run: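 qHTS luciferase splicing reporter: luminescence rises when SMN2 exon 7 is included in transfected HEK293 cells. Compound exposure lasted 30-36 h at 37C, with 4.5 mM final sodium butyrate as control, followed by a ONE-Glo read.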
Potency is read from the fitted curve at half-maximal effect.

SMILES | Potency | activity change, positive = activation
COc1cc(NC(=O)c2ccccc2Cl)ccc1NC(=O)c1cccs1 | active: 22.4 µM | –
Cc1ccccc1/C=N/Nc1nc2ccccc2[nH]1 | – | 82.4%
C=CCN1C(=O)NC(c2ccccc2)(C(F)(F)F)S/C1=C(\C#N)c1nnc(N2CCOCC2)n1-c1ccccc1 (stereo not given) | – | 57.9%
CC1CCN(c2ccc(NC(=O)c3cccnc3)cc2)CC1 | active: 28.2 µM | –
Cc1ccc(Sc2ncccc2C(=O)O)cc1C | – | 34.4%
Cc1ccc(/C=C/c2nnc(-c3cccs3)o2)cc1 | active: 10 µM | –
CN1C(=O)C2(C(C#N)=C(N)Oc3n[nH]c(-c4ccc(Cl)cc4)c32)c2ccccc21 (stereo not given) | – | 29.4%
Cc1cc(/C=C2/SC(=S)N(c3ccc([N+](=O)[O-])cc3)C2=O)c(C)n1-c1cccnc1 | – | inactive: -101%
CCOC(=O)COc1ccc2ccccc2c1/C=C/[N+](=O)[O-] | – | -112%
NC(=O)c1c(NC(=O)c2cc3ccccc3o2)sc2c1CCC2 | active: 2.24 µM | –
C(=N\Nc1nc2ccccc2[nH]1)/c1ccccc1 | active: 12.6 µM | –
CC1=C(Sc2ccccn2)C(=O)NC(C)(C)C1 | – | 41.4%
CC(=O)c1ccc(N2CCN(C(=S)Nc3ccccc3C(F)(F)F)CC2)cc1 | – | inactive: -33.9%
COC(=O)c1ccc(-c2ncc(-c3cccc4ccccc34)o2)cc1 | active: 11.2 µM | –
CN1/C(=C\C=[N+](C)c2ccccc2)C(C)(C)c2ccccc21 | – | -42%
O=C(O)CCCN1C(=O)/C(=C/c2ccc(-c3nc4ccccc4s3)o2)SC1=S | active: 17.8 µM | –
O=C(Nc1ccccc1)N1CC[C@@]2(CCCN(C(=O)c3csnn3)C2)C1 | – | inactive: -18.6%
C/C=C/c1ccc(OCCCNC2CCCC2)c(OC)c1 | – | 33.8%
O=C(N=Nc1c(O)[nH]c2ccccc12)c1ccc2c(c1)OCO2 | active: 11.2 µM | –
O=[N+]([O-])c1ccc(/C=C/c2nc3ccc([N+](=O)[O-])cc3[nH]2)cc1 | – | -40.1%
O=C(Nc1ccccc1C(=O)N1CCOCC1)C1CCCO1 (stereo not given) | – | 40.8%
O=C(/C=C/c1ccc2c(c1)OCO2)Nc1cccnc1 | active: 12.6 µM | –
Cc1noc(C)c1S(=O)(=O)N1CCC(C(=O)N2CCN(c3ccccc3Cl)CC2)CC1 | – | inactive: -53.3%
CC(C)CCn1c(CN2CCN(Cc3ccccc3)CC2)nc2c1c(=O)[nH]c(=O)n2C | – | 35.3%
O=C(/C=C\c1cccs1)N1CCN(Cc2ccc3c(c2)OCO3)CC1 | – | inactive: -55.6%
O=c1c2cnn(-c3ccccc3)c2nc(-c2ccco2)n1-c1ccccc1 | – | -47.9%
COc1cccc(C(=O)Nc2ccc(C(F)(F)F)n(C)c2=O)c1 | – | 185%

SMILES | Potency | activity change, positive = activation
O=C(Nc1ccc(CN2CCOCC2)cc1)c1cccs1 | active: 12.6 µM | –
Cc1nn(C)cc1CN(C)C(=O)c1nn2c(c1Cl)NC(c1cccs1)CC2C(F)(F)F (stereo not given) | – | -36.3%
CN1C(=O)N(C)C2=NNC=NC2(O)C1=O (stereo not given) | – | inactive: -74%
COC(=O)C(C)N1C(=O)S/C(=C/c2cc(C)n(-c3ccccn3)c2C)C1=O (stereo not given) | – | inactive: -41.9%
O=C(CCC(=O)N1CCN(S(=O)(=O)c2ccc(Cl)cc2)CC1)NC1CCCc2ccccc21 (stereo not given) | – | -30.3%
COc1ccc(C(=O)Nc2sc(C)c(C)c2CN2CCOCC2)cc1 | active: 12.6 µM | –
Cc1c(C(=O)OCCOc2ccccc2)[nH]c2c1C(=O)CCC2 | active: 3.55 µM | –
COc1ccc(C(=O)/C(=C/c2cccs2)c2nc3ccccc3o2)cc1 | – | inactive: -71.8%
COc1ccc(N2C(=O)CC(N3CCC(O)(c4ccc(Cl)cc4)CC3)C2=O)cc1 (stereo not given) | – | 33.4%
CC(=O)O[C@@]1(C(C)=O)CCC2C3CC(C)C4=CC(=O)CC[C@@]4(C)C3CC[C@]21C (stereo not given in full) | – | inactive: -68.9%
CN(C)C(=S)Nc1ccc([N+](=O)[O-])cc1 | – | 17.7%
CCC(=O)Oc1c(C(=O)CC)cc2c(C)cc(=O)oc2c1C | – | 35.3%
Cc1cccc(-c2noc(CN(C(=O)c3ccc(C)c(C)c3)C(C)C)n2)c1 | – | inactive: -71%
O=C(NCc1cccc2ccccc12)[C@H]1C[C@@H]1[C@H](NP(=O)(c1ccccc1)c1ccccc1)c1ccccc1 | – | inactive: -30.8%
COc1cccc(-c2n[nH]c3c2CCC3)c1 | – | 30.1%
COc1ccc(OC)c(Nc2nc(-c3ccc(O)c(O)c3)cs2)c1 | active: 17.8 µM | –
O=C(CCSc1ccccc1)Nc1nccs1 | – | 45.2%
O=C(O)CCc1ccc(-c2ccc(Cl)cc2)n1Cc1ccco1 | – | 17.3%
CCOC(=O)c1sc2nc(CC(=O)OC)nc(NCc3ccc(F)cc3)c2c1C | – | inactive: -56.7%
COc1ccc(NC(=O)c2ccco2)cc1NC(=O)c1cccc(C)c1OC | – | inactive: -31.3%
NN1C(=O)NC(c2ccccc2)(c2ccccc2)C1=O | – | -33.1%
c1ccc(-c2csc(NC3=NCCCCC3)n2)cc1 | active: 11.2 µM | –
C=CCNC(=S)Nc1cc(C)ccn1 | – | -47%
Cc1sc2nc(CN(C(=O)c3cccs3)C3CCCC3)[nH]c(=O)c2c1C | – | inactive: -39.6%
O=C(Nc1ccc(F)cc1F)N1CCN(c2ccc(Cl)c(Cl)c2)CC1 | – | 163%
CCC(C)NC(=O)c1ccc(N2CCC3(CC2)OCCO3)c([N+](=O)[O-])c1 (stereo not given) | – | 31.1% [at 1.84 µM]
CC(C)(C)NC(=O)CSc1nnc(-c2ccco2)n1Cc1ccco1 | – | 19.6%

SMILES | Potency | activity change, positive = activation
C/C(=N\O)c1sc(-c2ccccc2)nc1C | active: 15.8 µM | –
Cc1nn(-c2nnc(NCc3ccccc3)nn2)c(C)c1Br | – | 79%
CCOCCCN(CCC#N)S(=O)(=O)c1ccc(S(=O)(=O)N2CCCC2)cc1 | – | -36%
COc1cccc(NC(=S)NCc2ccc3c(c2)cc(C)n3C)c1 | – | 36.5%
Cc1ccc(C(=O)Nc2ncc(C)s2)o1 | active: 12.6 µM | –
COC(=O)c1nc2n(n1)C(c1ccc(OC)c(OC)c1OC)C1=C(CCCC1=O)N2 (stereo not given) | – | 36.2%
S=C(Nc1ccc(Nc2ccccc2)cc1)NC1CCCCCC1 | – | inactive: -32.9%
Cc1cc(S(=O)(=O)Nc2ccc3oc4c(c3c2)CCCC4)ccc1Cl | – | inactive: -39%
CCOc1ccccc1C(=O)NC(C(=O)Nc1cccc(S(N)(=O)=O)c1)C(C)C (stereo not given) | – | inactive: -25.4%
Cc1ccc(C)c(N2CCN(C(=O)c3ccc(Cn4c(=S)[nH]c5ccc(N6CCOCC6)cc5c4=O)cc3)CC2)c1 | – | 36.8%
Cc1ccc(F)cc1S(=O)(=O)N1CCC(c2nc3ccccc3s2)CC1 | – | 32.2%
Cc1c(C(=O)O)cccc1-c1ccc(/C=N/Nc2ccc(Br)cc2)o1 | – | 36%
O=C(Nc1ccccc1C(F)(F)F)c1cc2ncc(CCCl)cn2n1 | – | 36.9%
O=C(Nc1cccc(-c2nc3ccccc3o2)c1)c1cccnc1 | – | inactive: -35.4%
CCCCCCOc1ccc(C(=O)n2cnc(N)n2)cc1 | – | 44.8%
Cc1ccc2nc(/C(C#N)=C/c3ccc(-c4ccc(C(=O)OC(C)C)cc4)o3)[nH]c2c1 | active: 11.2 µM | –
CCc1c(C)sc(NC(=O)Cn2nc(C(F)(F)F)c3c2CCCC3)c1C#N | – | inactive: -41.9%
CC1(C)C(=O)OC(c2c(F)c(F)c(F)c(F)c2F)C2(CCCCC2)C1=O (stereo not given) | – | 35.8%
Cc1c(NC(=S)N/N=C/C=C/c2ccc([N+](=O)[O-])cc2)c(=O)n(-c2ccccc2)n1C | – | 2.15%
C/C(=N\N1CCN(c2ccc(Cl)cc2)CC1)c1ccco1 | – | -30.4%
CC(C)Oc1ccccc1/C=N/Nc1ccccc1[N+](=O)[O-] | – | inactive: -31.1%
CCOc1ccc(NC(=O)Nc2cccc(C(=O)O)c2)cc1 | active: 2 µM | –
O=C1NC(=O)/C(=C/c2ccc(O)cc2)S1 | – | 58.9%
O=C(/C=C/c1ccc(O)c(O)c1)OCCc1ccccc1 | active: 15.8 µM and active: 17.8 µM | –
Cc1cc(C(=O)COC(=O)Cc2n[nH]c(=O)c3ccccc23)c(C)n1-c1cccc(C(F)(F)F)c1 | – | inactive: -69.5%
COc1cc(CNc2nc(C)c([N+](=O)[O-])c(C)c2C#N)cc(OC)c1 | – | -32.3%
Fc1ccc(-c2cnn3c(-c4ccncc4)ccnc23)cc1 | active: 4.47 µM | –

Exported as labelled records: 4 of the compounds above
Cc1ccc(C(=O)Nc2ncc(C)s2)o1
  Potency: active: 12.6 µM
CC(C)Oc1ccccc1/C=N/Nc1ccccc1[N+](=O)[O-]
  activity change, positive = activation: inactive: -31.1%
O=C1NC(=O)/C(=C/c2ccc(O)cc2)S1
  activity change, positive = activation: 58.9%
O=C(/C=C/c1ccc(O)c(O)c1)OCCc1ccccc1
  Potency: active: 15.8 µM and active: 17.8 µM

Later entries:

SMILES | Potency | activity change, positive = activation
CC(C)/C=C1\CC/C(=C\c2cccnc2)C1=O | – | inactive: -34.2%
Cc1ccccc1C(=O)Oc1ccc(Sc2ccc(O)cc2)cc1 | – | 36%
Nc1nc(=S)c2[nH]cnc2[nH]1 | – | inactive: -43%
COC(=O)/C(=C\c1cc(OC)c(OC)c(OC)c1)c1nc2ccccc2[nH]1 | – | inactive: -99.2%
Cc1ccc(NS(=O)(=O)c2ccc(NC(=O)C3CCCO3)cc2)cc1 (stereo not given) | – | -67.6%
O=C(CCN1CCN(c2ccccc2)CC1)Nc1ccccc1F | – | 33.4%
CC(C)C[C@H](N)c1nnc(S(=O)(=O)Cc2ccc(F)cc2)o1 | – | -59%
Cc1nc(N/N=C/c2ccccn2)sc1C | – | -62.5%
CC(C)(C)C(=O)c1cnc(Nc2ccccc2Cl)s1 | active: 12.6 µM | –
O=C1NC(=S)S/C1=C\c1ccc(SCc2ccco2)o1 | – | -33%
CCOC(=O)c1c(NC(=O)c2ccccc2C)sc2c1CC(C)(C)OC2 | – | -36.5%
COc1ccccc1C1N(c2ccc(Cl)cc2)C(=O)C2CCCN21 (stereo not given) | – | 103%
C[n+]1c2n(c3ccccc31)N=C(c1ccccc1)CS2 | – | inactive: -70.8%
Cc1cccc(NC(=S)N2CCN(C(=O)C3CCCO3)CC2)c1 (stereo not given) | – | 16%
O=C(O)C(=O)/C(=C\c1ccccc1)c1ccc2ccccc2n1 | – | 81.2%
Cc1cc(O)c(/C=N/Nc2ccc(F)cc2)c(=O)o1 | – | inactive: -36.4%
CC(C)CCN1CC(C(=O)NCc2ccc(F)cc2)CC1=O (stereo not given) | – | 39.8%
COc1ccc(C2C3=C(CCCC3=O)Nc3ccc4ncccc4c32)cc1OC (stereo not given) | – | 71.6%
CC(=O)OCC1OC(n2ncc(=O)n(Cc3ccccc3)c2=O)C(OC(C)=O)C1OC(C)=O (stereo not given) | – | -29.3%
CCn1c(=S)[nH]c2cc(S(=O)(=O)N3CCCCC3)ccc21 | – | 97.9%
C/C(Cl)=C\COc1cc(C)nc2c(Br)cccc12 | – | inactive: -30.2%
Cc1ccc(-c2nc(-c3nccc4ccccc34)oc2-c2ccccc2)cc1 | active: 3.55 µM | –
CCOc1ccc(CNC(=O)c2ccc(Sc3ccc(C)cc3)c(NC(C)=O)c2)cc1OC | – | -40.3%
COc1ccccc1C(=O)Nc1ccc(-c2nnc(SCC(=O)O)n2C)cc1 | – | 35.4%
